Results from PMC11352932, “Enhancing Maturation and Translatability of Human Pluripotent Stem Cell-Derived Cardiomyocytes through a Novel Medium Containing Acetyl-CoA Carboxylase 2 Inhibitor” (Cells, 2024).

System: hiPSC-CMs
Test: In vitro hypertrophy model, ET-1 stimulation
Assay type: cell-based, human
Protocol: After 2 weeks in either standard or maturation media, medium was switched to hypertrophy stimulation medium composed of RPMI no glucose supplemented with B27 plus insulin, 5.5 mM glucose and 10 nM endothelin-1 (ET-1, E7764). hPSC-CMs were cultured for 48 h in this medium before their use for further analyses.
Cell area, circularity index, and aspect ratio were determined with FIJI (ImageJ v.2.14.0) software using standard analysis plugins. For each condition, at least 60 cells were analyzed.
RNA extraction was performed using the Agencourt RNAdvance Cell V2 kit (catalog no. A47942, Beckman Coulter, Bromma, Sweden) according to the manufacturer’s instructions. RNA quality was assessed using the Fragment Analyzer Standard Sensitivity RNA kit from Agilent Technologies, ensuring an RNA integrity number greater than 7. […] Sequenced reads were quality-controlled with the FastQC software and pre-processed with Trim Galore. Processed reads from iCell cardiomyocytes^2 and Chips22 were aligned to the reference genome GRCh37 with the STAR aligner, and Tophat2 with Bowties was used to map IPS C32 reads to GRCh38. Read counts for the genes were generated using the featureCounts library and normalized FPKM values calculated with StringTie. […]

Substance: endothelin-1 [ET-1]
- number of DEGs, ET-1-treated vs non-treated (cells cultured in maturation medium): 1171
- number of DEGs, ET-1-treated vs non-treated (cells cultured in standard medium): 527
